These results are taken from paper PMC5736175, “Nicotinic alpha 7 receptor agonists EVP-6124 and BMS-933043, attenuate scopolamine-induced deficits in visuo-spatial paired associates learning” (PLoS ONE, 2017).

The series is described as follows: Plasma pharmacokinetics in satellite animals (LC-MS/MS), 60 min after i.m. dose. To be noted: cynomolgus monkey, in vivo, nM total compound in plasma from satellite animals. As to the method: For all compounds, plasma pharmacokinetic studies were conducted in a separate cohort of cynomolgus monkeys (N = 2–3 subjects per dose) before beginning vsPAL testing to help guide dose selection. Blood samples were obtained with the animals awake and sitting in a primate chair.
Plasma concentrations of test compounds were determined using LC-MS/MS assays. In brief, 50 μL plasma and sample containing compounds was extracted by protein precipitation method with 150 μL acetonitrile containing an internal standard. A 5 μL sample of supernatant was injected into the LC-MS/MS system. Analytes were separated by reversed phase chromatography and detection of each analyte was achieved through selected reaction monitoring mode of mass spectrometry. Samples were quantified by calculated peak area ratio of analyte and internal standard against a calibration curve.

Structures can show the parent of a compound that is named as a salt.

In the case of `CN1[C@@H]2C[C@@H](OC(=O)[C@H](CO)c3ccccc3)C[C@H]1[C@@H]1O[C@@H]12` [Scopolamine, Scopolamine HCl], the concentration at 60 min by setting is: (0.003 mg/kg, Scopolamine 0.003 mg/kg i.m., individual subjects) 2 nM; (0.003 mg/kg, Scopolamine 0.003 mg/kg i.m., mean) 2.8 nM; (0.0056 mg/kg, Scopolamine 0.0056 mg/kg i.m., individual subjects) 3.4 nM; (0.0056 mg/kg, Scopolamine 0.0056 mg/kg i.m., mean) 2.9 nM; (0.01 mg/kg, Scopolamine 0.010 mg/kg i.m., mean) 12 nM.
